# Primary screen of a compound library

By UniProt entry, the sequences of proteins in these tests, tags left out.
UniProt I6X8D2, whole entry: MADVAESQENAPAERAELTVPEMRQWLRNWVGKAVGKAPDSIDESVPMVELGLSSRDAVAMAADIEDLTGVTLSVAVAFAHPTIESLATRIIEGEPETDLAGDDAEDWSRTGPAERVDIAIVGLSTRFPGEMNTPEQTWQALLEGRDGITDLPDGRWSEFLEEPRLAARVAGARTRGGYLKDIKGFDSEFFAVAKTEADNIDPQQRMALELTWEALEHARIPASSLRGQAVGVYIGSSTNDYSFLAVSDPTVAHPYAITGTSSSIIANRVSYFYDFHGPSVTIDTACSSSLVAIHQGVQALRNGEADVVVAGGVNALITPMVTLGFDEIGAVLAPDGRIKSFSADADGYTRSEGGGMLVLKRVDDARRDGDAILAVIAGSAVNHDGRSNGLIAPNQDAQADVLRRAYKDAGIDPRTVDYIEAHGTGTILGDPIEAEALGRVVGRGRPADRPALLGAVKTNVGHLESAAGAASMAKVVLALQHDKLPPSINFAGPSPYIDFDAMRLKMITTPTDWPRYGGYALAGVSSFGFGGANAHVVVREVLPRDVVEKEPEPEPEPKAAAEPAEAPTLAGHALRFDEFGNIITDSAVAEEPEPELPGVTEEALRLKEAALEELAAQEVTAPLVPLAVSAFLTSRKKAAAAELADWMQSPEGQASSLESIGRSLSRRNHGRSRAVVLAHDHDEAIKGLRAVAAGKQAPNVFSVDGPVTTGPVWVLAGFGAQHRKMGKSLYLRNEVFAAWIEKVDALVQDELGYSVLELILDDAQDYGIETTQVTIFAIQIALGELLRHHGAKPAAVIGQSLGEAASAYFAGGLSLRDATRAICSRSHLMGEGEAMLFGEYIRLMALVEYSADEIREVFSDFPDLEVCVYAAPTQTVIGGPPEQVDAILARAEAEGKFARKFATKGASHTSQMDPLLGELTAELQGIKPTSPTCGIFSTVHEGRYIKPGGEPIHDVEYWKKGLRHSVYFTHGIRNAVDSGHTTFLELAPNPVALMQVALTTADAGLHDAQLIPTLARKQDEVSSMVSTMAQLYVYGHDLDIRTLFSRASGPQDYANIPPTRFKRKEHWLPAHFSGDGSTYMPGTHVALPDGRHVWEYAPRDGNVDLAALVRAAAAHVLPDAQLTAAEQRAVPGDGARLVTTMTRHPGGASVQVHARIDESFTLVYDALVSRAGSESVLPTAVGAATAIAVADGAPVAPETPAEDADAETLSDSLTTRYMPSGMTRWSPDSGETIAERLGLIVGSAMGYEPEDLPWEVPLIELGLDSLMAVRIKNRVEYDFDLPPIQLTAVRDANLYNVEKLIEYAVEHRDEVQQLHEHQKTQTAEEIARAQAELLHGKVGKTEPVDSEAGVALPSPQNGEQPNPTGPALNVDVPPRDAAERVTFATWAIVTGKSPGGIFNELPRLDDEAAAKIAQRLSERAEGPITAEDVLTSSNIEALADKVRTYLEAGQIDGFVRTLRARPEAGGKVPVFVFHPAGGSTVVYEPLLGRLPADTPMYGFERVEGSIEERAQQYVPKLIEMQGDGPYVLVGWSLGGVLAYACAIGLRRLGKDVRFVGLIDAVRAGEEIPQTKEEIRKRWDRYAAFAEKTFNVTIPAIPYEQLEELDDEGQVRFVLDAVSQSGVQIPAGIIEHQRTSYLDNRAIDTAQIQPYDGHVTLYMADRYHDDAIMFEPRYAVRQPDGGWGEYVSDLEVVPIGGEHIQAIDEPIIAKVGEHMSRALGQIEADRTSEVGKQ
UniProt P9WPC5, whole entry: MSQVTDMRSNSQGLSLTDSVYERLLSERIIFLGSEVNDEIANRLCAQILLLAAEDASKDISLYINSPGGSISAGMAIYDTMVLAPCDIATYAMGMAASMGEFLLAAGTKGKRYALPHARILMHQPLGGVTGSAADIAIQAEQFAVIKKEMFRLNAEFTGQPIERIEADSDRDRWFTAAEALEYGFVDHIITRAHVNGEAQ
UniProt P9WPC3, whole entry partner: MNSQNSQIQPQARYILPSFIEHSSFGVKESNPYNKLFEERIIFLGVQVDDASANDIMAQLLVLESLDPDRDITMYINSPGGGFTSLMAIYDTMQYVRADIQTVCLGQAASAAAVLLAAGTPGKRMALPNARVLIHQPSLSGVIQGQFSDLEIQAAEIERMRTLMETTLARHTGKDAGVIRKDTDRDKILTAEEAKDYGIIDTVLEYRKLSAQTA

Leishmania in macrophages: 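Cell assay of Leishmania donovani living inside macrophages; the read-out is not stated. Compounds at 30 µM. Direction is inferred from retests: higher values go with stronger inhibition. Size under these conditions: about 69,000 compounds, about 1,000 of them at 50% or above in at least one test.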
Pks13 thioesterase: 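Enzyme assay of the thioesterase domain of polyketide synthase 13; the read-out is not stated. Target: Polyketide synthase Pks13, Mycobacterium tuberculosis (UniProt I6X8D2). Compounds at 30 µM. The record gives no direction; the compounds picked for IC50 retests had high values, so higher reads as stronger inhibition. Of about 67,000 compounds tested this way, about 300 (0.46%) reached 50% or more in at least one test.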
ClpP1P2: 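ClpP1P2, Mycobacterium tuberculosis (UniProt P9WPC5 and UniProt P9WPC3). Protease assay of ClpP1P2, read by the AMC dye that it sets free. Tested at 50 µM. Higher reads as stronger inhibition, judged from the few compounds that gave an IC50. Most other retested compounds had strongly negative values. Of about 69,000 compounds tested this way, about 10 (0.015%) reached 50% or more in at least one test.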
T. brucei: 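Whole-parasite assay of Trypanosoma brucei over 72 hours; the read-out is not stated. Concentration: 30 µM. Higher reads as stronger inhibition (inferred: compounds with an IC50 in retests scored well above the rest). Values scatter widely below zero; nearly all retest evidence comes from the higher of the two concentrations used. Of about 64,000 compounds tested this way, about 940 (1.5%) reached 50% or more in at least one test.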

The filed quantity is “Percent Effect” (%). The record does not define 0% and 100%; most values in the screen are far below 50% and negative numbers occur (in some assays of this library far below -100). This is an unselected part of the compounds tested. Two or more numbers in one place are separate tests of the same structure; such repeats can differ widely. A dash means the value is not listed here; it may have been measured.

SMILES	Leishmania in macrophages	Pks13 thioesterase	ClpP1P2	T. brucei
CC1(C)[C@H](Cc2cc(CN3CCCCC3)on2)C[C@@H]1NS(C)(=O)=O	4.493%	-11.81%	-10.24%	-5.473%
Cn1cccc(NC(=O)NCCOCc2ccccc2)c1=O	10.53%	-13.87%	-2.554%	-76.39%
O=S(=O)(C1CC1)N1CCn2c(Cn3cncn3)cnc2C1	24.58%	-27.23%	1.394%	-
O=C(Nc1ccccn1)C1(n2cnnn2)CCCCC1	-1.522%	-	-4.721%	-28.83%
CC(C)N1CCCC2(CCN(C(=O)CCCn3cncn3)C2)C1=O (stereo not given)	14.9%	-16.55%	-2.199%	0.58%
CSC(C)(C)CNC(=O)NC1CCC1	-4.731%	26.35%	-7.102%	-21.49%
O=C(O)C(F)(F)F.[H][C@@]12OCCN(c3ncccn3)[C@@]1([H])CC[C@H]2OCC(=O)N1CCCC1	6.156% and 16.43%	-	-	-30.41%
Cc1c(C2SCC(=O)Nc3c2c(O)nn3C2CCCC2)cnn1C (stereo not given)	-4.601% and -0.383%	-16%	-6.773%	-1.697%
Cc1ccc(Nc2nccc(C3CN(C(C)C)C3)n2)nc1	-13.01% and 6.854%	-18.71%	23.04%	-41.59%
CCS(=O)(=O)c1ccccc1N1CCC(NC(=O)NC2CCCC2)CC1	10.78%	-12.74%	6.258%	7.94%
COc1cccc(CN(C)C(C)C(=O)Nc2nc(C)c(C)s2)c1 (stereo not given)	51.15%	-17.43%	-3.513%	-49.32%
CN1C(=O)C(c2cccnc2)CC12CCN(CCO)CC2 (stereo not given)	12.91%	2.51%	-1.408%	-50.41%
CC(Oc1ccccc1C(F)(F)F)C(=O)NCCCC(N)=O (stereo not given)	16.04%	1.075%	-5.102%	-44.11%
COCCN1CCC(NCc2cccc(C)c2)C1 (stereo not given)	11.56%	-12.69%	-29.45%	-
O=C(O)C(F)(F)F.[H][C@@]12COC[C@]1(C(=O)NC1CC(F)(F)C1)CN(Cc1scnc1C)C2	30.87%	-	-	-50.86%
Cc1ccc(CNC(=O)N2CCc3ccccc3C2CO)s1 (stereo not given)	1.56%	-17.06%	-3.311%	4.695%
COc1cccc(CN2CCc3nc(C(=O)NCC(C)C)sc3CC2)c1	-	-9.901%	-4.512%	-
O=C(O)C(F)(F)F.O=C1CCC2(CCCN(Cc3ccccc3F)C2)N1CC1CC1 (stereo not given)	25.28%	-	-	1.757%
CC(C)c1cc(N[C@H](C(N)=O)C(C)C)n2nccc2n1	6.815%	-4.116%	-10.11%	-7.792%
CC(C)Cn1cncc1Cn1cccc(C(F)(F)F)c1=O	10.96%	-39.46%	14.08%	-27.04%
O=C(NCCc1ccc(Cl)s1)N1CCS(=O)(=O)CC1	11.19%	-15.09%	-19.77%	-19.84%
COCCc1noc(CN2CCN(c3ccc(OC)cc3)C(=O)C2C)n1 (stereo not given)	6.497%	-15.8%	-5.586%	-2.919%
CCc1ccc(C(=O)O)cc1S(=O)(=O)Nc1c(C)ccn(C)c1=O	17.39%	-17.64%	4.318%	2.82%
CCn1c(C)nnc1CN(C)C1CCN(Cc2ccon2)C1 (stereo not given)	-7.212%	-	9.615%	-26.32%
CNC(=O)CCCNc1cc(C)nc2cc(C)nn12	-0.4616%	4.403%	-5.302%	-9.377%
CC1CCC(NS(=O)(=O)CC(=O)NC(C2CC2)C2CC2)CC1 (stereo not given)	7.821%	-20.29%	-7.086%	-44.81%
CSc1ncc(Cl)c(C(=O)NC(Cc2ccccc2)C(=O)O)n1 (stereo not given)	22.46%	-21.72%	10.32%	-23.18%
COc1ccc(CN2CCC3(CC2)CCN(c2cnn(C)c2)C3=O)cc1.O=C(O)C(F)(F)F	14.18%	-	-	29.53%
Cc1cc(CN2CCN(CC(=O)NC3(C#N)CCCCC3)CC2)on1	8.942%	5.4%	-12.96%	-39.19%
CN(Cc1ccccc1)C(=O)CCNS(=O)(=O)c1cccnc1	17.21%	-3.176%	13.45%	7.361%
CN(C)C(=O)C1CCC2(CCN(Cc3ccc4ccccc4n3)CC2)O1 (stereo not given)	4.906%	-26.67%	-13.14%	10.31%
Cc1cc(N2CCN(Cc3ccccc3)CC(O)C2)cc(C)n1 (stereo not given)	25.35%	-16.71%	-17.11%	-18.16%
O=C(CCCn1ccnc1)N[C@H]1CN(C2CCCC2)C[C@@H]1C1CC1	19.83%	-39.67%	-7.216%	-34.51%
O=C(Nc1cc2c(cc1Br)OCCO2)NC1CCS(=O)(=O)C1 (stereo not given)	-23.73%	-3.71%	9.205%	23.42%
CCc1[nH]nc(NC(=O)c2ccc(Cl)cn2)c1C	-22.41%	0.7505%	-1.904%	7.486%
[H][C@@]12COC[C@]1(CNS(C)(=O)=O)CN(C(=O)N1CCCC1)C2	-6.449%	-	-	-34.74%
CCn1c(Cn2cncn2)nnc1C1CCN(Cc2ccccn2)CC1	-10.49% and -22.9%	5.334%	0.7771%	-46.43%
O=C1CNc2ncnc(N3CCN(c4ccccc4F)CC3)c2N1	17.24%	19.24%	-24.48%	-10.61%
O=C1CN(C(=O)c2nnn(-c3ccc(C(F)(F)F)cc3)n2)CCN1	3.765% and -0.8549%	-19.09%	2.145%	6.432%
CSc1ncc(CNC(C)c2cnn(-c3ccc(F)cc3F)c2C)cn1 (stereo not given)	-14.8%	-15.01%	-22.38%	-
COC1CN(C(=O)NC2CCCC2)CCC(=O)N(C)c2ccccc21 (stereo not given)	-8.337%	9.194%	4.36%	-26.67%

Some entries from above, unchanged:

- COc1ccc(CN2CCC3(CC2)CCN(c2cnn(C)c2)C3=O)cc1.O=C(O)C(F)(F)F : Leishmania in macrophages: 14.18%; T. brucei: 29.53%
- CCc1[nH]nc(NC(=O)c2ccc(Cl)cn2)c1C : Leishmania in macrophages: -22.41%; Pks13 thioesterase: 0.7505%; ClpP1P2: -1.904%; T. brucei: 7.486%

Data taken from ChEMBL document CHEMBL3988442, “University of Dundee, Small-Polar-MMV Screening Library” (2021).